{"source": "patent US9978954B2", "about": "“Benzobis (thiadiazole) derivative, ink comprising same, and organic electronic device comprising same” (UBE INDUSTRIES, LTD., priority 2013, dated 2018)", "test": "Field-effect mobility of organic TFT, organic semiconductor layer by spin-coating", "key": {"[1]": {"conditions": "ink 0.1 wt % in chloroform prepared at room temperature, PVP substrate, heated at 120° C. for 35 minutes, drain voltage 100 V"}, "[2]": {"conditions": "ink 0.1 wt % in chloroform prepared at room temperature, bare substrate, heated at 120° C. for 35 minutes, drain voltage 100 V"}, "[3]": {"conditions": "ink 0.1 wt % in chloroform prepared at room temperature, PVP substrate, heated at 180° C. for 35 minutes, drain voltage 100 V"}, "[4]": {"conditions": "ink 0.1 wt % in chloroform prepared at room temperature, bare substrate, heated at 180° C. for 35 minutes, drain voltage 100 V"}, "[5]": {"conditions": "ink 0.1 wt % in chloroform heated at 60° C., PVP substrate, heated at 180° C. for 35 minutes, drain voltage 100 V"}, "[6]": {"conditions": "ink 0.1 wt % in chloroform heated at 60° C., bare substrate, heated at 180° C. for 35 minutes, drain voltage 100 V"}, "[7]": {"conditions": "ink 0.1 wt % in chloroform heated at 70° C., bare substrate, heated at 180° C. for 35 minutes, drain voltage 100 V"}, "[8]": {"conditions": "ink 0.1 wt % in chloroform heated at 70° C., PVP substrate, heated at 180° C. for 35 minutes, drain voltage 100 V"}, "[9]": {"conditions": "ink 0.3 wt % in toluene heated at 100° C., CYC substrate, no annealing, drain voltage 100 V"}, "[10]": {"conditions": "ink 0.3 wt % in toluene heated at 100° C., PS substrate, heated at 150° C. for 35 minutes, drain voltage 100 V"}, "[11]": {"conditions": "ink 0.3 wt % in toluene heated at 100° C., PVP substrate, heated at 180° C. for 35 minutes, drain voltage 100 V"}, "[12]": {"conditions": "ink 0.1 wt % in chloroform prepared at room temperature, CYC substrate, heated at 240° C. for 35 minutes, drain voltage 100 V"}}, "note": "Some entries repeat one wording, which the source may state once for all of them.", "data": [{"molecule": "CCCC(C)CCc1cc(-c2ccc(-c3c4c(c(-c5ccc(-c6ccc(C#N)c(CCC(C)CCC)c6)s5)c5nsnc35)N=S=N4)s2)ccc1C#N", "note": "(stereo not drawn) [Compound (C21), 4,8-bis[5-(4-cyano-3-(3-methylhexyl)phenyl)thiophene-2-yl]benzo[1,2-c:4,5-c′]bis[1,2,5]thiadiazole]", "values": [{"measurement": "field-effect mobility (μ)", "setting": "[1]", "result": "8.0×10^−1 cm^2/Vs"}, {"measurement": "field-effect mobility (μ)", "setting": "[2]", "result": "6.1×10^−1 cm^2/Vs"}]}, {"molecule": "CCCCCCCCc1ccc(-c2ccc(-c3c4c(c(-c5ccc(-c6ccc(CCCCCCCC)c(C#N)c6)s5)c5nsnc35)N=S=N4)s2)cc1C#N", "note": "[Compound (C26), 4,8-bis[5-(3-cyano-4-octylphenyl)thiophene-2-yl]benzo[1,2-c:4,5-c′]bis[1,2,5]thiadiazole]", "values": [{"measurement": "field-effect mobility (μ)", "setting": "[3]", "result": "5.1×10^−3 cm^2/Vs"}, {"measurement": "field-effect mobility (μ)", "setting": "[4]", "result": "2.5×10^−3 cm^2/Vs"}]}, {"molecule": "CCCCCCc1cc(-c2ccc(-c3c4c(c(-c5ccc(-c6cc(CCCCCC)c(C#N)c(CCCCCC)c6)s5)c5nsnc35)N=S=N4)s2)cc(CCCCCC)c1C#N", "note": "[Compound (C22), 4,8-bis[5-(4-cyano-3,5-dihexylphenyl)thiophene-2-yl]benzo[1,2-c:4,5-c′]bis[1,2,5]thiadiazole]", "values": [{"measurement": "field-effect mobility (μ)", "setting": "[1]", "result": "did not have the transistor characteristics"}, {"measurement": "field-effect mobility (μ)", "setting": "[2]", "result": "did not have the transistor characteristics"}]}, {"molecule": "CCCCC(CC)Cc1cc(-c2ccc(-c3c4c(c(-c5ccc(-c6ccc(C(F)(F)F)c(CC(CC)CCCC)c6)s5)c5nsnc35)N=S=N4)s2)ccc1C(F)(F)F", "note": "(stereo not drawn) [Compound (C30)]", "values": [{"measurement": "field-effect mobility (μ)", "setting": "[5]", "result": "1.7×10^0 cm^2/Vs"}, {"measurement": "field-effect mobility (μ)", "setting": "[6]", "result": "8.9×10^−1 cm^2/Vs"}]}, {"molecule": "CCCCCCCCCCCCCCCCc1cc(-c2ccc(-c3c4c(c(-c5ccc(-c6ccc(C#N)c(CCCCCCCCCCCCCCCC)c6)s5)c5nsnc35)N=S=N4)s2)ccc1C#N", "note": "[Compound (C19), 4,8-bis[5-(4-cyano-3-hexadecylphenyl)thiophene-2-yl]benzo[1,2-c:4,5-c′]bis[1,2,5]thiadiazole]", "values": [{"measurement": "field-effect mobility (μ)", "setting": "ink 0.1 wt % in chloroform heated at 70° C., PVP substrate, heated at 120° C. for 35 minutes, drain voltage 60 V", "result": "2.9×10^0 cm^2/Vs"}, {"measurement": "field-effect mobility (μ)", "setting": "ink 0.1 wt % in chloroform heated at 70° C., bare substrate, heated at 180° C. for 35 minutes, drain voltage 60 V", "result": "2.2×10^0 cm^2/Vs"}]}, {"molecule": "CCCCCCCCc1cc(-c2ccc(-c3c4c(c(-c5ccc(-c6ccc(C(F)(F)F)c(CCCCCCCC)c6)s5)c5nsnc35)N=S=N4)s2)ccc1C(F)(F)F", "note": "[Compound (C24), 4,8-bis[5-(3-octyl-4-(trifluoromethyl)phenyl)thiophene-2-yl]benzo[1,2-c:4,5-c′]bis[1,2,5]thiadiazole]", "values": [{"measurement": "field-effect mobility (μ)", "setting": "ink 0.1 wt % in chloroform heated at 70° C., PVP substrate, heated at 150° C. for 35 minutes, drain voltage 100 V", "result": "8.5×10^−1 cm^2/Vs"}, {"measurement": "field-effect mobility (μ)", "setting": "[7]", "result": "7.3×10^−1 cm^2/Vs"}]}, {"molecule": "CCCCCCCCc1ccc(-c2ccc(-c3c4c(c(-c5ccc(-c6ccc(CCCCCCCC)c(C(F)(F)F)c6)s5)c5nsnc35)N=S=N4)s2)cc1C(F)(F)F", "note": "[Compound (C25), 4,8-bis[5-(4-octyl-3-(trifluoromethyl)phenyl)thiophene-2-yl]benzo[1,2-c:4,5-c′]bis[1,2,5]thiadiazole]", "values": [{"measurement": "field-effect mobility (μ)", "setting": "[8]", "result": "1.1×10^0 cm^2/Vs"}, {"measurement": "field-effect mobility (μ)", "setting": "[7]", "result": "4.4×10^−1 cm^2/Vs"}]}, {"molecule": "CCCCCCc1cc(-c2c3c(c(-c4cc(CCCCCC)c(-c5ccc(C#N)cc5)s4)c4nsnc24)N=S=N3)sc1-c1ccc(C#N)cc1", "note": "[Compound (RC6), 4,8-bis[4-hexyl-5-(3-(2-methylhexyl)-4-(trifluoromethyl)phenyl)thiophene-2-yl]benzo[1,2-c:4,5-c′]bis[1,2,5]thiadiazole, reference compound]", "values": [{"measurement": "field-effect mobility (μ)", "setting": "ink 0.1 wt % in chloroform prepared at room temperature, PVP substrate, no annealing, drain voltage 100 V", "result": "did not have the transistor characteristics"}, {"measurement": "field-effect mobility (μ)", "setting": "ink 0.1 wt % in chloroform prepared at room temperature, bare substrate, no annealing, drain voltage 100 V", "result": "did not have the transistor characteristics"}]}, {"molecule": "CCCCCCc1ccc(-c2ccc(-c3c4c(c(-c5ccc(-c6ccc(CCCCCC)c(OC(F)(F)F)c6)s5)c5nsnc35)N=S=N4)s2)cc1OC(F)(F)F", "note": "[Compound (C11), 4,8-bis[5-(4-hexyl-3-(trifluoromethoxy)phenyl)thiophene-2-yl]benzo[1,2-c:4,5-c′]bis[1,2,5]thiadiazole]", "values": [{"measurement": "field-effect mobility (μ)", "setting": "[9]", "result": "4.0×10^−1 cm^2/Vs"}, {"measurement": "field-effect mobility (μ)", "setting": "[10]", "result": "8.5×10^−3 cm^2/Vs"}, {"measurement": "field-effect mobility (μ)", "setting": "[11]", "result": "8.1×10^−1 cm^2/Vs"}]}, {"molecule": "CCCCCCCCCc1cc(-c2ccc(-c3c4c(c(-c5ccc(-c6ccc(C#N)c(CCCCCCCCC)c6)s5)c5nsnc35)N=S=N4)s2)ccc1C#N", "note": "[Compound (C15), 4,8-bis[5-(4-cyano-3-nonylphenyl)thiophene-2-yl]benzo[1,2-c:4,5-c′]bis[1,2,5]thiadiazole]", "values": [{"measurement": "field-effect mobility (μ)", "setting": "[12]", "result": "1.1×10^0 cm^2/Vs"}, {"measurement": "field-effect mobility (μ)", "setting": "[3]", "result": "1.3×10^0 cm^2/Vs"}, {"measurement": "field-effect mobility (μ)", "setting": "[4]", "result": "1.5×10^0 cm^2/Vs"}]}, {"molecule": "CCCCCCCCCCc1cc(-c2ccc(-c3c4c(c(-c5ccc(-c6ccc(C#N)c(CCCCCCCCCC)c6)s5)c5nsnc35)N=S=N4)s2)ccc1C#N", "note": "[Compound (C16), 4,8-bis[5-(4-cyano-3-decylphenyl)thiophene-2-yl]benzo[1,2-c:4,5-c′]bis[1,2,5]thiadiazole]", "values": [{"measurement": "field-effect mobility (μ)", "setting": "ink 0.1 wt % in chloroform heated at 60° C., CYC substrate, heated at 240° C. for 35 minutes, drain voltage 100 V", "result": "2.4×10^0 cm^2/Vs"}, {"measurement": "field-effect mobility (μ)", "setting": "[5]", "result": "1.3×10^0 cm^2/Vs"}, {"measurement": "field-effect mobility (μ)", "setting": "[6]", "result": "1.4×10^0 cm^2/Vs"}]}, {"molecule": "CCCCCCCCCCCCc1cc(-c2ccc(-c3c4c(c(-c5ccc(-c6ccc(C(F)(F)F)c(CCCCCCCCCCCC)c6)s5)c5nsnc35)N=S=N4)s2)ccc1C(F)(F)F", "note": "[Compound (C27), 4,8-bis[5-(3-dodecyl-4-(trifluoromethyl)phenyl)thiophene-2-yl]benzo[1,2-c:4,5-c′]bis[1,2,5]thiadiazole]", "values": [{"measurement": "field-effect mobility (μ)", "setting": "ink 0.1 wt % in chloroform heated at 60° C., PVP substrate, heated at 150° C. for 35 minutes, drain voltage 100 V", "result": "1.9×10^0 cm^2/Vs"}, {"measurement": "field-effect mobility (μ)", "setting": "[6]", "result": "1.1×10^0 cm^2/Vs"}]}, {"molecule": "CCCCCCc1cc(-c2ccc(-c3c4c(c(-c5ccc(-c6ccc(C(F)(F)F)c(CCCCCC)c6)s5)c5nsnc35)N=S=N4)s2)ccc1C(F)(F)F", "note": "[Compound (C10), 4,8-bis[5-(3-hexyl-4-(trifluoromethyl)phenyl)thiophene-2-yl]benzo[1,2-c:4,5-c′]bis[1,2,5]thiadiazole]", "values": [{"measurement": "field-effect mobility (μ)", "setting": "[8]", "result": "4.4×10^0 cm^2/Vs"}, {"measurement": "field-effect mobility (μ)", "setting": "ink 0.1 wt % in chloroform heated at 70° C., bare substrate, heated at 150° C. for 35 minutes, drain voltage 100 V", "result": "1.4×10^0 cm^2/Vs"}, {"measurement": "field-effect mobility (μ)", "setting": "ink 0.3 wt % in xylene heated at 90° C., CYC substrate, no annealing, drain voltage 100 V", "result": "6.0×10^−2 cm^2/Vs"}, {"measurement": "field-effect mobility (μ)", "setting": "ink 0.3 wt % in xylene heated at 90° C., PS substrate, heated at 150° C. for 35 minutes, drain voltage 100 V", "result": "1.9×10^−2 cm^2/Vs"}, {"measurement": "field-effect mobility (μ)", "setting": "ink 0.3 wt % in xylene heated at 90° C., PVP substrate, heated at 120° C. for 35 minutes, drain voltage 100 V", "result": "3.4×10^−1 cm^2/Vs"}]}, {"molecule": "CCCCCCCCc1cc(-c2ccc(-c3c4c(c(-c5ccc(-c6ccc(C#N)c(CCCCCCCC)c6)s5)c5nsnc35)N=S=N4)s2)ccc1C#N", "note": "[Compound (C14), 4,8-bis[5-(4-cyano-3-octylphenyl)thiophene-2-yl]benzo[1,2-c:4,5-c′]bis[1,2,5]thiadiazole]", "values": [{"measurement": "field-effect mobility (μ)", "setting": "[12]", "result": "2.0×10^0 cm^2/Vs"}, {"measurement": "field-effect mobility (μ)", "setting": "ink 0.1 wt % in chloroform prepared at room temperature, PVP substrate, heated at 180° C. for 35 minutes, drain voltage 80 V", "result": "1.0×10^0 cm^2/Vs"}, {"measurement": "field-effect mobility (μ)", "setting": "[4]", "result": "8.5×10^−1 cm^2/Vs"}, {"measurement": "field-effect mobility (μ)", "setting": "spin-coating and heating in the atmosphere, ink 0.1 wt % in chloroform prepared at room temperature, PVP substrate, heated at 180° C. for 35 minutes, drain voltage 100 V", "result": "6.9×10^−1 cm^2/Vs"}, {"measurement": "field-effect mobility (μ)", "setting": "spin-coating and heating in the atmosphere, ink 0.1 wt % in chloroform prepared at room temperature, bare substrate, heated at 180° C. for 35 minutes, drain voltage 100 V", "result": "6.5×10^−1 cm^2/Vs"}]}, {"molecule": "CCCCCCc1cc(-c2ccc(-c3c4c(c(-c5ccc(-c6ccc(OC(F)(F)F)c(CCCCCC)c6)s5)c5nsnc35)N=S=N4)s2)ccc1OC(F)(F)F", "note": "[Compound (C12)]", "values": [{"measurement": "field-effect mobility (μ)", "setting": "[9]", "result": "6.9×10^−2 cm^2/Vs"}, {"measurement": "field-effect mobility (μ)", "setting": "[10]", "result": "3.5×10^−1 cm^2/Vs"}, {"measurement": "field-effect mobility (μ)", "setting": "[11]", "result": "2.5×10^0 cm^2/Vs"}]}, {"molecule": "CCCCCCCCCCCCCCc1cc(-c2ccc(-c3c4c(c(-c5ccc(-c6ccc(C#N)c(CCCCCCCCCCCCCC)c6)s5)c5nsnc35)N=S=N4)s2)ccc1C#N", "note": "[Compound (C18), 4,8-bis[5-(4-cyano-3-tetradecylphenyl)thiophene-2-yl]benzo[1,2-c:4,5-c′]bis[1,2,5]thiadiazole]", "values": [{"measurement": "field-effect mobility (μ)", "setting": "ink 0.1 wt % in chloroform heated at 70° C., PVP substrate, heated at 180° C. for 35 minutes, drain voltage 30 V", "result": "2.1×10^0 cm^2/Vs"}, {"measurement": "field-effect mobility (μ)", "setting": "ink 0.1 wt % in chloroform heated at 70° C., bare substrate, heated at 120° C. for 35 minutes, drain voltage 50 V", "result": "1.5×10^0 cm^2/Vs"}]}]}
